Source: the supplement of paper PMC12819154, “High-throughput peptide-centric local stability assay extends protein–ligand identification to membrane proteins, tissues and bacteria” (Nature Structural & Molecular Biology, 2025)
The other results are listed elsewhere or left out. Small differences around the control level are noise.

Sequences of proteins named here, by UniProt entry; tags and fusion partners are left off. A change or cut given only in a name is not applied to a line headed by its entry.
UniProt Q3URD3: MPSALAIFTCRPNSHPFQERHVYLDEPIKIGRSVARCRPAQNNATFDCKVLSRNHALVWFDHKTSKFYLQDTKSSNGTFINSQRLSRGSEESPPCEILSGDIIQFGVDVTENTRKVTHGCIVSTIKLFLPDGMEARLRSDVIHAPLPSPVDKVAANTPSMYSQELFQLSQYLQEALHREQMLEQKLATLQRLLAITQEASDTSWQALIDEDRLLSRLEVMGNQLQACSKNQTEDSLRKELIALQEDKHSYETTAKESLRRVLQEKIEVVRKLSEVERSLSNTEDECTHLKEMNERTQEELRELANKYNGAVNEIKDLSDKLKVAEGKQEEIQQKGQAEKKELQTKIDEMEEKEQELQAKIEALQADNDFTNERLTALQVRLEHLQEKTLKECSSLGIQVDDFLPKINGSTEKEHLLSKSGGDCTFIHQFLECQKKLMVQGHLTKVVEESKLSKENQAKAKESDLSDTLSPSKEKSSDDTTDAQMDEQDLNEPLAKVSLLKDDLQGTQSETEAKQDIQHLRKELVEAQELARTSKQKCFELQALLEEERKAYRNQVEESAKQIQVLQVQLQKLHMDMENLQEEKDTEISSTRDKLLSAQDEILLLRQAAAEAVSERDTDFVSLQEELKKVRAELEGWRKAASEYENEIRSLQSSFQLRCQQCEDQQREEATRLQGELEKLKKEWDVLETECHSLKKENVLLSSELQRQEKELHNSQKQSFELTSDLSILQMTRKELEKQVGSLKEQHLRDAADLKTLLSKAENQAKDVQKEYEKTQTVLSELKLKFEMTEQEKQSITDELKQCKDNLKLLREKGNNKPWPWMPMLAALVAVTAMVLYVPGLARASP
UniProt Q05793, whole entry: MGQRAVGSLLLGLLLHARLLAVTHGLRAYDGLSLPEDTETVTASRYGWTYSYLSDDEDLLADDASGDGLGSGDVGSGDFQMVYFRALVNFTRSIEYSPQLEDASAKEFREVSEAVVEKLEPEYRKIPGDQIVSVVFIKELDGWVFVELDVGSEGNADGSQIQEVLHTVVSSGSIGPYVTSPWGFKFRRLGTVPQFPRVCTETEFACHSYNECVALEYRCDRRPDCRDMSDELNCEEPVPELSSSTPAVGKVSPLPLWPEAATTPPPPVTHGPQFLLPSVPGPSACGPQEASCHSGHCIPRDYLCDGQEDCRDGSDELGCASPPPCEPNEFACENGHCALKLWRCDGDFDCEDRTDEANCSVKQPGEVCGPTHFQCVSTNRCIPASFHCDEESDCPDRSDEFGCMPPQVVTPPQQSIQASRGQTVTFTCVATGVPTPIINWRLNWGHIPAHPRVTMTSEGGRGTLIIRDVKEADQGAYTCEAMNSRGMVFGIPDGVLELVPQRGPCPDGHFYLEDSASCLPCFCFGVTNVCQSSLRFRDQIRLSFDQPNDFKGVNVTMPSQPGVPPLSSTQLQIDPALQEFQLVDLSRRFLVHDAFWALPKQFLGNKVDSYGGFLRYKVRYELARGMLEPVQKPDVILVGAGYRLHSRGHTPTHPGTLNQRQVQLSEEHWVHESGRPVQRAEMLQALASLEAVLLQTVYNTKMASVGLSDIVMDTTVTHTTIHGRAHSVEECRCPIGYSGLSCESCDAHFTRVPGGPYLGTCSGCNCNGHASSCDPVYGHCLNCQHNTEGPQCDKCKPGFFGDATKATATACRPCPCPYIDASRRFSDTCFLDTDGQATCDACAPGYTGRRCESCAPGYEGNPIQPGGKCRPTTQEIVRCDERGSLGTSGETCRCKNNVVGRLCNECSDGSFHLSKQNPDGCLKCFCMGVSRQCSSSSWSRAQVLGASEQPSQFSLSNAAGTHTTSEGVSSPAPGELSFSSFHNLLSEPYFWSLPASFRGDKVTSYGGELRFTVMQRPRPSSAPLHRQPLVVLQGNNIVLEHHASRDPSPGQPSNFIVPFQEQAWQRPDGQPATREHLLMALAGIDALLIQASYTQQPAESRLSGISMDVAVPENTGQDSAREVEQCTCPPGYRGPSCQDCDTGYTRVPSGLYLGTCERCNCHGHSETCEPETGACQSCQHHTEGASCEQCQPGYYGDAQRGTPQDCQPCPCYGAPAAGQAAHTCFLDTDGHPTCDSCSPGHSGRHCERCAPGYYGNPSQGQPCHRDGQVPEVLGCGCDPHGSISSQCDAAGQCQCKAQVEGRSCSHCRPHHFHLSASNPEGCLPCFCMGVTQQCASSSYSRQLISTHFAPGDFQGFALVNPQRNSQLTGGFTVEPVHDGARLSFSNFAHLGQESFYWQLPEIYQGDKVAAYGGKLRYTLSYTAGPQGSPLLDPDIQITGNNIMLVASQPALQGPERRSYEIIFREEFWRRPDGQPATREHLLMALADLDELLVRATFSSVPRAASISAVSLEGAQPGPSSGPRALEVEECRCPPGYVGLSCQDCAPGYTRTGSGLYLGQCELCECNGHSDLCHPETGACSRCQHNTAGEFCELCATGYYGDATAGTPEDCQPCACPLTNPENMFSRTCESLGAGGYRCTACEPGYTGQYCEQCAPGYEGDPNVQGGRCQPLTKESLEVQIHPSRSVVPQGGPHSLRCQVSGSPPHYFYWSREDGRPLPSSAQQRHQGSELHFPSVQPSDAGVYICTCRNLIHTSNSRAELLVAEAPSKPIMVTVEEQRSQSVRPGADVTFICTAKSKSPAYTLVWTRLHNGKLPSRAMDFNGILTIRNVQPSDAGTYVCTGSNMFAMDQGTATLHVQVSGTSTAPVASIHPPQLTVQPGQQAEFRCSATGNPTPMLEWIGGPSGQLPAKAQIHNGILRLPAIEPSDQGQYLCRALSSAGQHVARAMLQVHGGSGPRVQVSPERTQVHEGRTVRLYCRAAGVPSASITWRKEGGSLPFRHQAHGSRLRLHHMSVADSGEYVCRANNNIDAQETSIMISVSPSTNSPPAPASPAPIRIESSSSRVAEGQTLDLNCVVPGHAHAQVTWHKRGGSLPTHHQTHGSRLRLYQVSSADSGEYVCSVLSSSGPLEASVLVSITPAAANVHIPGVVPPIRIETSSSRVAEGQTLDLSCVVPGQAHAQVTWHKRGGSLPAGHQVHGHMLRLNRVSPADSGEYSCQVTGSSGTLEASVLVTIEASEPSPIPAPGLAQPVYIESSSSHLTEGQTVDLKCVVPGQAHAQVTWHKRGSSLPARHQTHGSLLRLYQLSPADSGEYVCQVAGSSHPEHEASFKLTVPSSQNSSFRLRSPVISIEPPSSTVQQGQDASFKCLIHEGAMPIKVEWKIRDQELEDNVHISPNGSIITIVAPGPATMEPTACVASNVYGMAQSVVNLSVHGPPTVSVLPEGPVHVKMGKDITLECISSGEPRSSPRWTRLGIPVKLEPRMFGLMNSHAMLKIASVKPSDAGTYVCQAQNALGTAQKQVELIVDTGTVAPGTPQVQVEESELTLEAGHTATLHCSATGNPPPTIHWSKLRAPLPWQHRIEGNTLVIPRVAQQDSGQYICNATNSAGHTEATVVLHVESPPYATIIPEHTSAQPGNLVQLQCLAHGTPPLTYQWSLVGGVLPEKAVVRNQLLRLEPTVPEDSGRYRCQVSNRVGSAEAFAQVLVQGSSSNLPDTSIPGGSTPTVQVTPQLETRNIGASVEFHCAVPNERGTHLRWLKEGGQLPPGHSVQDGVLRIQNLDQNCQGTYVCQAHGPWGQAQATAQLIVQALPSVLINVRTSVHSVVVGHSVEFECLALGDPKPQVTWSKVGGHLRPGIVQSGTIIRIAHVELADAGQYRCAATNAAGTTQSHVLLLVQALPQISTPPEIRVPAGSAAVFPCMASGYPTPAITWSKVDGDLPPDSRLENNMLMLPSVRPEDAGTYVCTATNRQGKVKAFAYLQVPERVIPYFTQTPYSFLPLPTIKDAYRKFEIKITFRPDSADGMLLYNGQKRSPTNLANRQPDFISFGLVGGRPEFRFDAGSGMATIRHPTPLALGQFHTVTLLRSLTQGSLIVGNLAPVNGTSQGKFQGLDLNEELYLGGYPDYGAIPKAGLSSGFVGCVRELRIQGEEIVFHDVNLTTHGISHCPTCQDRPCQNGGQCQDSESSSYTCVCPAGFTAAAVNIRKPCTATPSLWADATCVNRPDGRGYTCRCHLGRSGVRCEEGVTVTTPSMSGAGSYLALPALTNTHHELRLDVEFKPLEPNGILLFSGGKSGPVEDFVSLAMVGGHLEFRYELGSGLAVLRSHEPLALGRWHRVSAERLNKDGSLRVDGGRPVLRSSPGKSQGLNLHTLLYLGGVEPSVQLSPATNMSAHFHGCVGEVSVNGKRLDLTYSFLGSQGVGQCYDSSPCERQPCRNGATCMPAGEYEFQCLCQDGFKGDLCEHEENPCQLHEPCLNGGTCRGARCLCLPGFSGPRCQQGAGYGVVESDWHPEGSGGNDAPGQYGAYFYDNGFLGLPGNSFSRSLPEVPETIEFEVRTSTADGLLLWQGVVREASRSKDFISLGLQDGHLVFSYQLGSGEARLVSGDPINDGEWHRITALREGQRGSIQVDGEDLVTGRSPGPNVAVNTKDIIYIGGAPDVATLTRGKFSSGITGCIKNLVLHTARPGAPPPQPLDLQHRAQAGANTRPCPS
UniProt Q3UA37: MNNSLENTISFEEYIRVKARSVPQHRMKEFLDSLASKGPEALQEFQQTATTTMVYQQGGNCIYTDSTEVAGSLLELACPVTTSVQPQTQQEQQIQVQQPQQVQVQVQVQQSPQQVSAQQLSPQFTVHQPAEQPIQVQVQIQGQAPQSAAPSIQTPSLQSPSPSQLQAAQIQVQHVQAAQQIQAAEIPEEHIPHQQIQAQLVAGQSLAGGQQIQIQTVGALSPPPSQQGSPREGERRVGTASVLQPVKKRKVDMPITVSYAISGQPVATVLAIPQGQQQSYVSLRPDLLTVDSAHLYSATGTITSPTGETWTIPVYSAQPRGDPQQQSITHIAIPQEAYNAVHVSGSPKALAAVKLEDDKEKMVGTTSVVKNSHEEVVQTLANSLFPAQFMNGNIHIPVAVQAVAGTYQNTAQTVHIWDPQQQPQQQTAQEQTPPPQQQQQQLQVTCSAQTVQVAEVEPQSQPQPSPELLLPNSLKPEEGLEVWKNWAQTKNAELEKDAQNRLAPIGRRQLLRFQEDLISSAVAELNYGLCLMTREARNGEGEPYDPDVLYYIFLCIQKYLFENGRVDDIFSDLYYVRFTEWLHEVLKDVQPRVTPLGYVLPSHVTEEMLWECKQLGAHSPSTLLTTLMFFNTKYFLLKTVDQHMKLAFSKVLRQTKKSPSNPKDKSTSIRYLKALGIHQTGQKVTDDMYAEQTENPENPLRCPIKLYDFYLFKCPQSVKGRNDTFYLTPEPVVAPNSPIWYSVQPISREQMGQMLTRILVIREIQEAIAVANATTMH
UniProt Q3UY34: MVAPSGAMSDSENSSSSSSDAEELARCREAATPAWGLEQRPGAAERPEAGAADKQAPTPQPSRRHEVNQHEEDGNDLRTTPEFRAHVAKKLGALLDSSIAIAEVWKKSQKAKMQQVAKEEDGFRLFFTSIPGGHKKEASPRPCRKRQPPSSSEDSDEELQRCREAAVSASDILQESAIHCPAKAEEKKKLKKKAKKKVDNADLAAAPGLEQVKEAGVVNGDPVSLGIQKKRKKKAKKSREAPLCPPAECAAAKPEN
UniProt Q04899: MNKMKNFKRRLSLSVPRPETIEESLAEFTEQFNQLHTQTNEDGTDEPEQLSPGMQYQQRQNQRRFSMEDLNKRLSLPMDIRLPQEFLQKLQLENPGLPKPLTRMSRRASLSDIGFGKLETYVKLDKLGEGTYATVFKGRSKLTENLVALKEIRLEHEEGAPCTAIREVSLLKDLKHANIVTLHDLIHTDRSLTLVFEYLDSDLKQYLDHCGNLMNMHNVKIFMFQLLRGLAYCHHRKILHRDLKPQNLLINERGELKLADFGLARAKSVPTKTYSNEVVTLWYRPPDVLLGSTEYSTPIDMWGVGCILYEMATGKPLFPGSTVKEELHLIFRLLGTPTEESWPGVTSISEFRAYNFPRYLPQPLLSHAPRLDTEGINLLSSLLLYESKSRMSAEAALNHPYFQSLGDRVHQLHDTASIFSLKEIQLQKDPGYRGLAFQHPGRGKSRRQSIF
UniProt Q3TV70: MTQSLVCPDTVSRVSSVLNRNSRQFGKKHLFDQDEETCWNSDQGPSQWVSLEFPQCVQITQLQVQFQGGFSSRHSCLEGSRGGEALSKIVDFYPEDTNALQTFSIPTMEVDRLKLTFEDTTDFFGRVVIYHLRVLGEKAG
UniProt Q3UMW8: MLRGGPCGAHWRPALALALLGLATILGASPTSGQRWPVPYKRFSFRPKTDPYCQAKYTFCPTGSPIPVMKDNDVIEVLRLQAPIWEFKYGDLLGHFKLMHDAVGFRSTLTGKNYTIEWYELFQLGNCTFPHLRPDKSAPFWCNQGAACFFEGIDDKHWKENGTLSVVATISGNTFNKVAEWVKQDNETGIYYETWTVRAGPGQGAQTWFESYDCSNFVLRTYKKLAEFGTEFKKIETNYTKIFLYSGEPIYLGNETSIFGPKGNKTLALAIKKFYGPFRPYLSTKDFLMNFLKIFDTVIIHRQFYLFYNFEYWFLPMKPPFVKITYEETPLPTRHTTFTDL

Compound: CN[C@@H]1C[C@H]2O[C@@](C)([C@@H]1OC)n1c3ccccc3c3c4c(c5c6ccccc6n2c5c31)C(=O)NC4 [staurosporine]
Test: log2 fold change of pooled soluble protein (PISA), ligand vs vehicle (log2 ratio); higher = more thermally stabilized
Details: ligand concentration: 20 uM; assay format: PISA pool 52.9/55.5/58.6 C

Target | log2 fold change of pooled soluble protein
UniProt Q2TBE6 | 0.489
UniProt Q570Y9 | -0.175
UniProt Q3TLD5 | 0.124
UniProt Q3URD3 | -0.075
UniProt Q3UJD6 | -0.133
UniProt Q01405 | 0.000736
UniProt Q3TAS6 | -0.00773
UniProt Q3UDP0 | -0.167
UniProt Q3UH68 | -0.218
UniProt Q3TTY5 | 0.138
UniProt Q5FWI3 | -0.0822
UniProt Q3TQI7 | -0.0632
UniProt Q3UQ84 | -0.033
UniProt Q3U9G9 | -0.177
UniProt Q05793 | -0.0826
UniProt Q3TXS7 | -0.0566
UniProt Q3U182 | 0.285
UniProt Q0VEE6 | -0.336
UniProt Q3TCX3 | -0.0409

Quoted at random: three entries already listed, in no set order.
Target | log2 fold change of pooled soluble protein
UniProt Q3UDP0 | -0.167
UniProt Q3TXS7 | -0.0566
UniProt Q3UJD6 | -0.133

The list continues.

Target | log2 fold change of pooled soluble protein
UniProt Q4VBD2 | 0.00374
UniProt Q3TIX9 | -0.1
UniProt Q3UVU3 | 0.104
UniProt Q01149 | 0.187
UniProt Q3UA37 | -0.116
UniProt Q3UYV9 | 1.49
UniProt Q3UY34 | 0.105
UniProt Q3TIR1 | -0.085
UniProt Q569Z5 | -0.0865
UniProt Q05AH6 | 0.136
UniProt Q4ACU6 | -0.137
UniProt Q04899 | -0.256
UniProt Q3UDR8 | -0.113
UniProt Q5DU09 | 0.68
UniProt Q3TV70 | -0.0717
UniProt Q4QQM4 | -0.189
UniProt Q3SXB8 | 0.0546
UniProt Q3UMW8 | 0.0804
